Source: US7495126B2, “Process of preparation of substituted tetrafluorobenzylaniline compound and its pharmaceutically approved salts” (priority 2005, dated 2009)
The source gives many values for each of these; only a part stands here.

Test: Stability test of injectable preparation (salt in WFI, HPLC)
Settings: in WFI 2 mg/ml

Row | SMILES | Residual amount (25° C., day 0) | Residual amount (25° C., day 3) | Residual amount (25° C., day 14) | Residual amount (25° C., day 21) | Residual amount (25° C., day 30) | Residual amount (25° C., day 60) | Residual amount (25° C., day 90) | Residual amount (25° C., day 120) | Residual amount (25° C., day 150) | Residual amount (25° C., day 180) | Residual amount (40° C., day 0) | Residual amount (40° C., day 3) | Residual amount (40° C., day 7) | Residual amount (40° C., day 14) | Residual amount (40° C., day 21) | Residual amount (40° C., day 30) | Residual amount (40° C., day 60) | Residual amount (40° C., day 90) | Residual amount (40° C., day 120) | Residual amount (40° C., day 150) | other results
1 | O=C([O-])c1cc(NCc2c(F)c(F)c(C(F)(F)F)c(F)c2F)ccc1O.[K+] [potassium salt, potassium 2-hydroxy-5-(2,3,5,6-tetrafluoro-4-trifluoromethyl-benzylamino)benzoate] | 106.71 ± 0.29% | 107.86 ± 0.58% | 106.28 ± 1.29% | 98.94 ± 0.99% | 98.55 ± 0.43% | 97.73 ± 1.02% | 97.41 ± 0.02% | 97.40 ± 0.53% | 96.88 ± 3.09% | 95.99 ± 0.56% | 106.71 ± 0.29% | 107.73 ± 3.13% | 105.87 ± 2.04% | 104.97 ± 0.47% | 96.58 ± 0.38% | 95.66 ± 0.24% | 93.24 ± 3.04% | 92.91 ± 1.11% | 92.84 ± 0.91% | 91.72 ± 0.92% | Residual amount (40° C., day 180): 90.59 ± 0.83%; Residual amount (60° C., day 0): 106.71 ± 0.29%; Residual amount (60° C., day 3): 104.29 ± 0.50%; Residual amount (60° C., day 7): 101.76 ± 0.09%; Residual amount (60° C., day 14): 100.81 ± 0.83%; Residual amount (60° C., day 21): 90.02 ± 2.81%; Residual amount (60° C., day 30): 90.09 ± 1.88%; Residual amount (60° C., day 60): 87.38 ± 1.55%; Residual amount (60° C., day 90): 87.25 ± 1.55%; Residual amount (60° C., day 120): 86.37 ± 1.43%; Residual amount (60° C., day 150): 86.62 ± 0.83%; Residual amount (60° C., day 180): 84.68 ± 2.02%
2 | O=C([O-])c1cc(NCc2c(F)c(F)c(C(F)(F)F)c(F)c2F)ccc1O.[Li+] [lithium salt, lithium 2-hydroxy-5-(2,3,5,6-tetrafluoro-4-trifluoromethyl-benzylamino)benzoate] | 99.67 ± 0.12% | 99.72 ± 0.30% | 98.91 ± 0.41% | 98.81 ± 1.67% | 95.51 ± 0.52% | 93.40 ± 0.81% | 90.40 ± 0.68% | 90.34 ± 0.58% | 89.73 ± 2.47% | 87.81 ± 1.51% | 99.67 ± 0.12% | 99.42 ± 0.22% | 98.33 ± 1.14% | 97.21 ± 0.41% | 95.05 ± 0.40% | 90.89 ± 1.00% | 89.61 ± 1.31% | 88.80 ± 0.24% | 88.07 ± 0.48% | 87.65 ± 3.22% | Residual amount (25° C., day 7): 99.63 ± 0.35%; Residual amount (40° C., day 180): 84.63 ± 2.90%; Residual amount (60° C., day 0): 99.67 ± 0.12%; Residual amount (60° C., day 3): 99.28 ± 1.02%; Residual amount (60° C., day 7): 95.34 ± 1.02%; Residual amount (60° C., day 14): 94.78 ± 2.58%; Residual amount (60° C., day 21): 94.47 ± 2.18%; Residual amount (60° C., day 30): 93.40 ± 0.61%; Residual amount (60° C., day 60): 83.11 ± 0.47%; Residual amount (60° C., day 90): 81.84 ± 0.62%; Residual amount (60° C., day 120): 81.53 ± 2.36%; Residual amount (60° C., day 150): 80.81 ± 2.08%; Residual amount (60° C., day 180): 75.59 ± 3.15%
